For one molecule, binding results are on record in patent US11542340.

Results are given in words; binding and its absence hold for the method and conditions named. Some binding calls cover weakened binding; strength is not graded here.

The target of assay [1] is T1, VEIFYR peptide (LG3BP tryptic peptide).
T1 sequence (peptide): VEIFYR
The assay can be described thus: Peptide Target listed for the purified subclone (selected by peptide ELISA). In general terms: An ELISA detects its analyte on a solid surface through an enzyme-linked reagent.

Assay [2] shares this target. The assay can be described thus: indirect ELISA on directly coated peptide.

B1: LG3BP-AJ-1.2-14E09-02F04 (antibody, V domains shown)
VH: QVQLQQPGAELVKPGASVKLSCKASGYTFSSYWMHWVKQRPGQGLEWIGEINRSNGRTNYNEKFKSKATLTVDKSSTTAYMQLSSLTSEDSAVYYCTKWGVTSDYWGQGTTLTVSS
VL: ENVLTQSPAIMSASPGEKVTMTCSASSNVNYMHWFQQKSSTSPKLWIYDTSKLASGVPGRFSGSGSGNSYSLTISSMEAEDVATYYCFQGSGYPRTFGGGTKLEIK
In the case of B1, the binding entry in assay [1] and in assay [2] was “binds” throughout.
